System: Caco-2 cells

- Peff A B, Range (pH 7.4 Caco-2, A to B): 0.69-1.80 × E-6 cm/sec
- Peff B A, Range (pH 7.4 Caco-2, B to A): 1.69-2.68 × E-6 cm/sec
Structure (SMILES): CC(C)NCC(O)COc1ccc(CC(N)=O)cc1 (centres unmarked) [Atenolol]
